Measured values reported in the supplement of paper PMC7661543.
Differences between knockout arms are mostly noise.

System: MDA-MB-231
Assay: relative cell number vs DMSO control (72 h) (% of DMSO); higher = less growth inhibition (more cells)
Method: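 QMAP-Seq: a pool of 5 breast cancer cell lines (ZR-75-1, SKBR3, HCC-38, MDA-MB-231, BT-20), each carrying 12 doxycycline-inducible Cas9 sgRNA perturbations (11 knockouts plus non-targeting sgNT), was treated with compounds for 72 h at four 10-fold doses (10 nM-10 uM or 1 nM-1 uM range). Barcodes were amplified and sequenced, and cell number was interpolated from 293T spike-in standard curves. The result is expressed as % of the median of DMSO wells. Two biological replicates.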

CC/C(=C(\c1ccc(O)cc1)c1ccc(OCCN(C)C)cc1)c1ccccc1 [4-Hydroxytamoxifen]
Conditions	relative cell number
sgRNA knockout: sgATF3, 10 nM	99.1
sgRNA knockout: sgATF3, 100 nM	78.6
sgRNA knockout: sgATF3, 1000 nM	108
sgRNA knockout: sgATF3, 10000 nM	70.3
sgRNA knockout: sgATF4, 10 nM	91.4
sgRNA knockout: sgATF4, 100 nM	75.3
sgRNA knockout: sgATF4, 1000 nM	86
sgRNA knockout: sgATF4, 10000 nM	44.6
sgRNA knockout: sgATF6, 10 nM	87.5
sgRNA knockout: sgATF6, 100 nM	76.1
sgRNA knockout: sgATF6, 1000 nM	109
sgRNA knockout: sgATF6, 10000 nM	69.9
sgRNA knockout: sgATG7, 10 nM	99.6
sgRNA knockout: sgATG7, 100 nM	90.1
sgRNA knockout: sgATG7, 1000 nM	92.6
sgRNA knockout: sgATG7, 10000 nM	66
sgRNA knockout: sgERN1, 10 nM	101
sgRNA knockout: sgERN1, 100 nM	98
sgRNA knockout: sgERN1, 1000 nM	96.6
sgRNA knockout: sgERN1, 10000 nM	68.1
sgRNA knockout: sgHSF1, 10 nM	84.1
sgRNA knockout: sgHSF1, 100 nM	82.23
sgRNA knockout: sgHSF1, 1000 nM	114
sgRNA knockout: sgHSF1, 10000 nM	63.2
sgRNA knockout: sgHSF2, 10 nM	97.9
sgRNA knockout: sgHSF2, 100 nM	94
sgRNA knockout: sgHSF2, 1000 nM	92.48
sgRNA knockout: sgHSF2, 10000 nM	52
sgRNA knockout: sgKEAP1, 10 nM	118
sgRNA knockout: sgKEAP1, 100 nM	86.7
sgRNA knockout: sgKEAP1, 1000 nM	96.3
sgRNA knockout: sgKEAP1, 10000 nM	44.7
sgRNA knockout: sgNFE2L2, 10 nM	99.3
sgRNA knockout: sgNFE2L2, 100 nM	75.6
sgRNA knockout: sgNFE2L2, 1000 nM	92.6
sgRNA knockout: sgNFE2L2, 10000 nM	67.9
sgRNA knockout: sgSLC35F2, 10 nM	81
sgRNA knockout: sgSLC35F2, 100 nM	103
sgRNA knockout: sgSLC35F2, 1000 nM	72.2
sgRNA knockout: sgSLC35F2, 10000 nM	64.2
sgRNA knockout: sgXBP1, 10 nM	84.2
sgRNA knockout: sgXBP1, 100 nM	111
sgRNA knockout: sgXBP1, 1000 nM	82.3
sgRNA knockout: sgXBP1, 10000 nM	61.1

CN1CCN(c2ccc(C(=O)Nc3n[nH]c4ccc(Cc5cc(F)cc(F)c5)cc34)c(NC3CCOCC3)c2)CC1 [Entrectinib]
Conditions	relative cell number
sgRNA knockout: sgATF3, 1 nM	98.2
sgRNA knockout: sgATF3, 10 nM	102
sgRNA knockout: sgATF3, 100 nM	103
sgRNA knockout: sgATF3, 1000 nM	79.1
sgRNA knockout: sgATF4, 1 nM	76.2
sgRNA knockout: sgATF4, 10 nM	131
sgRNA knockout: sgATF4, 100 nM	113
sgRNA knockout: sgATF4, 1000 nM	112
sgRNA knockout: sgATF6, 1 nM	109
sgRNA knockout: sgATF6, 10 nM	77.5
sgRNA knockout: sgATF6, 100 nM	86.2
sgRNA knockout: sgATF6, 1000 nM	82.2
sgRNA knockout: sgATG7, 1 nM	74.7
sgRNA knockout: sgATG7, 10 nM	81.4
sgRNA knockout: sgATG7, 100 nM	99.5
sgRNA knockout: sgATG7, 1000 nM	71.4
sgRNA knockout: sgERN1, 1 nM	87.5
sgRNA knockout: sgERN1, 10 nM	89.1
sgRNA knockout: sgERN1, 100 nM	124
sgRNA knockout: sgERN1, 1000 nM	81.78
sgRNA knockout: sgHSF1, 1 nM	101
sgRNA knockout: sgHSF1, 10 nM	96.3
sgRNA knockout: sgHSF1, 100 nM	95.68
sgRNA knockout: sgHSF1, 1000 nM	80.3
sgRNA knockout: sgHSF2, 1 nM	115
sgRNA knockout: sgHSF2, 10 nM	98.6
sgRNA knockout: sgHSF2, 100 nM	100
sgRNA knockout: sgHSF2, 1000 nM	81.3
sgRNA knockout: sgKEAP1, 1 nM	82.1
sgRNA knockout: sgKEAP1, 10 nM	83.8
sgRNA knockout: sgKEAP1, 100 nM	108
sgRNA knockout: sgKEAP1, 1000 nM	63.756
sgRNA knockout: sgNFE2L2, 1 nM	98.6
sgRNA knockout: sgNFE2L2, 10 nM	85
sgRNA knockout: sgNFE2L2, 100 nM	102
sgRNA knockout: sgNFE2L2, 1000 nM	77.9
sgRNA knockout: sgSLC35F2, 1 nM	101
sgRNA knockout: sgSLC35F2, 10 nM	90.3
sgRNA knockout: sgSLC35F2, 100 nM	103.4
sgRNA knockout: sgSLC35F2, 1000 nM	88.6
sgRNA knockout: sgXBP1, 1 nM	104
sgRNA knockout: sgXBP1, 10 nM	94.7
sgRNA knockout: sgXBP1, 100 nM	101
sgRNA knockout: sgXBP1, 1000 nM	66.6

CC(C)(C#N)c1ccc(N2C(=O)OCc3cnc4ccc(-c5cnc6ccccc6c5)cc4c32)cc1
Conditions	relative cell number
sgRNA knockout: sgATF3, 10 nM	99.87
sgRNA knockout: sgATF3, 100 nM	94.7
sgRNA knockout: sgATF3, 1000 nM	83.3
sgRNA knockout: sgATF3, 10000 nM	56
sgRNA knockout: sgATF4, 10 nM	97.9
sgRNA knockout: sgATF4, 100 nM	121
sgRNA knockout: sgATF4, 1000 nM	82.6
sgRNA knockout: sgATF4, 10000 nM	73.9
sgRNA knockout: sgATF6, 10 nM	127
sgRNA knockout: sgATF6, 100 nM	85
sgRNA knockout: sgATF6, 1000 nM	76.5
sgRNA knockout: sgATF6, 10000 nM	46.6
sgRNA knockout: sgATG7, 10 nM	90
sgRNA knockout: sgATG7, 100 nM	107
sgRNA knockout: sgATG7, 1000 nM	103
sgRNA knockout: sgATG7, 10000 nM	61.43
sgRNA knockout: sgERN1, 10 nM	111
sgRNA knockout: sgERN1, 100 nM	80.5
sgRNA knockout: sgERN1, 1000 nM	91
sgRNA knockout: sgERN1, 10000 nM	68
sgRNA knockout: sgHSF1, 10 nM	98.3
sgRNA knockout: sgHSF1, 100 nM	98.9
sgRNA knockout: sgHSF1, 1000 nM	80.3
sgRNA knockout: sgHSF1, 10000 nM	59.9
sgRNA knockout: sgHSF2, 10 nM	101
sgRNA knockout: sgHSF2, 100 nM	98.6
sgRNA knockout: sgHSF2, 1000 nM	95.8
sgRNA knockout: sgHSF2, 10000 nM	59.8
sgRNA knockout: sgKEAP1, 10 nM	117.4
sgRNA knockout: sgKEAP1, 100 nM	96.9
sgRNA knockout: sgKEAP1, 1000 nM	84
sgRNA knockout: sgKEAP1, 10000 nM	50.8
sgRNA knockout: sgNFE2L2, 10 nM	102
sgRNA knockout: sgNFE2L2, 100 nM	90.6
sgRNA knockout: sgNFE2L2, 1000 nM	91.8
sgRNA knockout: sgNFE2L2, 10000 nM	59.2
sgRNA knockout: sgSLC35F2, 10 nM	94.3
sgRNA knockout: sgSLC35F2, 100 nM	92.6
sgRNA knockout: sgSLC35F2, 1000 nM	68.1
sgRNA knockout: sgSLC35F2, 10000 nM	66.2
sgRNA knockout: sgXBP1, 10 nM	82.93
sgRNA knockout: sgXBP1, 100 nM	74.7
sgRNA knockout: sgXBP1, 1000 nM	89.8
sgRNA knockout: sgXBP1, 10000 nM	63.8
